Record: PubChem BioAssay AID504784 (Drosophila RNAi Screening Center, 2011)
The deposit covers about 17,000 reagents; this is a random part of those with a known target gene and a result. 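Each column is one replicate's B-score; the combined score over replicates was not deposited, so single values may mislead.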

- Screen: 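Fly genes whose silencing alters how much lipid cells keep in droplets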 (primary screen)
- Cell system: Drosophila Kc167 embryonic cells
- Reagents: long dsRNA against Drosophila genes, about 250 ng dsRNA per well
- Timing: 4 days
- Conditions: cells fed 400 µM oleic acid bound to BSA
- Measured: 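Cells imaged and segmented; ratio of lipid droplet area to nuclear area, log-transformed, then normalised as a B-score over the screen; higher means more stored lipid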
- Reading the numbers: droplet/nuclear area B-score: higher = more stored lipid (overstorage)

no.	target	amplicon	droplet/nuclear area B-score, replicate 1	droplet/nuclear area B-score, replicate 2	droplet/nuclear area B-score, replicate 3
1	CG5883	DRSC10552	-0.963	-0.765	
2	CG4367	DRSC15568	0.416	-0.502	
3	Arc2 (Activity-regulated cytoskeleton associated protein 2)	DRSC06436	1.28	1.71	
4	rhi (rhino)	DRSC05996	0.157	0.759	
5	Corin	DRSC06818	-1.71	0.276	-0.565
6	nvy (nervy)	DRSC04705	-0.081	-0.129	0.0515
7	CG33469	DRSC22900	0.00241	1.22	
8	ken (ken and barbie)	DRSC04696	4.64	-0.106	
9	ken (ken and barbie)	DRSC23196	-0.105	-0.221	
10	CG42284	DRSC22094	0.0767	-0.0395	
11	CG42284	DRSC22342	4.24	0.116	
12	CG6550	DRSC07001	-0.228	0.554	
13	ort (ora transientless)	DRSC16240	0.227	-0.173	
14	Non1 (Novel nucleolar protein 1)	DRSC05954	0.00516	2.27	
15	stw (straw)	DRSC04842	0.783	0.0965	
16	stw (straw)	DRSC04843	0.962	1.09	
17	stw (straw)	DRSC22527	-0.988	-1.18	
18	Or43b (Odorant receptor 43b)	DRSC07486	0.945	0.432	

Records listed so far whose gene name starts with S or s (3):
target	amplicon	droplet/nuclear area B-score, replicate 1	droplet/nuclear area B-score, replicate 2	droplet/nuclear area B-score, replicate 3
stw (straw)	DRSC04842	0.783	0.0965	
stw (straw)	DRSC04843	0.962	1.09	
stw (straw)	DRSC22527	-0.988	-1.18	

The results go on.
no.	target	amplicon	droplet/nuclear area B-score, replicate 1	droplet/nuclear area B-score, replicate 2	droplet/nuclear area B-score, replicate 3
19	UK114	DRSC01973	0.389	-0.767	
20	pdm3 (pou domain motif 3)	DRSC06076	-0.174	-0.581	
21	pdm3 (pou domain motif 3)	DRSC06490	-0.674	-1.54	
22	pdm3 (pou domain motif 3)	DRSC22326	9.48	3.29	
23	pdm3 (pou domain motif 3)	DRSC23181	0.57	-0.465	
24	CG12081	DRSC17802	0.917	0.503	-1.13
25	Exd2 (Exonuclease 3'-5' domain-containing 2)	DRSC16105	-0.0322	-0.807	
26	Or13a (Odorant receptor 13a)	DRSC20265		0.291	
27	CG7299	DRSC03043	0.685	-3.1	
28	Archease	DRSC16025	0.0441	0.252	
29	Rh6 (Rhodopsin 6)	DRSC16823	-1.01	2.04	
30	Arfrp1 (ADP-ribosylation factor related protein 1)	DRSC18417	3.64	2.61	1.91
31	Amt (Ammonium transporter)	DRSC16055	1.74	0.0147	
32	Gr64c (Gustatory receptor 64c)	DRSC08445	0.729	0.669	
33	phr6-4 ((6-4)-photolyase)	DRSC03589	-0.0472	0.695	
34	CG15127	DRSC05802	0.765	0.126	
35	CG15127	DRSC06549	-1.29	0.228	
